Patent US20130345268A1, “Methods and Compositions for the Treatment of RAS Associated Disorders” (The Trustees of Dartmouth College, priority 2009, published 2013)
Some results come without the dose or concentration used.

System: T265 (NF1-/-) and STS26T (NF1+/+) MPNST cell lines
Test: NF1 screen: differential growth inhibition of T265 versus STS26T MPNST cells
Assay type: cell-based, human
Conditions: Table 4; 26T IC50 versus T265 IC50

Going from `N=C(N)SCc1cn(-c2ccccc2)nc1-c1cccc(Br)c1` [Formula Ia] to `Cc1ccc(Cn2c(=N)n(CC(O)c3ccc(Br)cc3)c3ccccc32)cc1` (stereo not drawn) [VIII], the “Fold Difference” value falls from 38.7 to 17.7.

With `CCc1cc(-c2ccccc2OS(=O)(=O)c2ccc3ccccc3c2)nn1CCNCCc1ccc(OC)c(OC)c1` [V] the “Fold Difference” value was 8.1.
